Laboratory results: patent publication US20250066380A1, “NOVEL FURANO-NAPHTHOQUINONE AND NOVEL PYRAZINONE COMPOUNDS FROM AMYCOLATOPSIS AND ACTIVITIES THEREOF” (COUNCIL OF SCIENTIFIC AND INDUSTRIAL RESEARCH (AN INDIAN …, priority 2022, published 2025)
Values after ≈ are worked out from the molar mass of the structure shown.

Test system: Escherichia coli ATCC 8739
Test: MIC, CLSI broth microdilution
Type: cell-based
Conditions: Mueller Hinton broth, 18 hours at 37° C.; highest concentration 128 μg/ml
Experimental: The MICs of the purified compounds were done according to CLSI guidelines using Mueller Hinton broth (Hi media) against panel of six Gram positive bacteria S.aureus, S.epidermidis, B.cereus, B.subtilis, M.luteus and L.monocytogenes, two Gram negative bacteria E.coli and P.aeruginosa, and four MRSA (Methicillin resistant S.aureus) clinical strain. The stock solution of compounds were made at 10 mg/ml in DMSO. The test compounds (highest concentration 128 μg/ml) were serially diluted in 50 μl of Mueller Hinton broth and 50 μl of bacterial suspension were added to reach the final desired cell density of 5×10^5 CFU ml^−1 in each well of 96 well microtiter plate except the media control. The medium, untreated culture, DMSO, ampicillin and kanamycin were used as controls. […] The MICs were defined as the lowest concentration that inhibited visible growth of bacteria.

MIC: 2 µg/mL (≈ 5.72 µM)
Structure (SMILES): CC1(C)S[C@@H]2[C@H](NC(=O)[C@H](N)c3ccccc3)C(=O)N2[C@H]1C(=O)O [Ampicilli, ampicillin, reference compound]
